Measurements from patent US20170002081A1.
These are yes or no findings as the source states them, for the method shown. Some binding calls cover weakened binding; strength is not graded here.

Amino acid sequences for entries named in this document (tags omitted). A change or cut given only in a name is not applied to a line headed by its entry.
UniProt P07333: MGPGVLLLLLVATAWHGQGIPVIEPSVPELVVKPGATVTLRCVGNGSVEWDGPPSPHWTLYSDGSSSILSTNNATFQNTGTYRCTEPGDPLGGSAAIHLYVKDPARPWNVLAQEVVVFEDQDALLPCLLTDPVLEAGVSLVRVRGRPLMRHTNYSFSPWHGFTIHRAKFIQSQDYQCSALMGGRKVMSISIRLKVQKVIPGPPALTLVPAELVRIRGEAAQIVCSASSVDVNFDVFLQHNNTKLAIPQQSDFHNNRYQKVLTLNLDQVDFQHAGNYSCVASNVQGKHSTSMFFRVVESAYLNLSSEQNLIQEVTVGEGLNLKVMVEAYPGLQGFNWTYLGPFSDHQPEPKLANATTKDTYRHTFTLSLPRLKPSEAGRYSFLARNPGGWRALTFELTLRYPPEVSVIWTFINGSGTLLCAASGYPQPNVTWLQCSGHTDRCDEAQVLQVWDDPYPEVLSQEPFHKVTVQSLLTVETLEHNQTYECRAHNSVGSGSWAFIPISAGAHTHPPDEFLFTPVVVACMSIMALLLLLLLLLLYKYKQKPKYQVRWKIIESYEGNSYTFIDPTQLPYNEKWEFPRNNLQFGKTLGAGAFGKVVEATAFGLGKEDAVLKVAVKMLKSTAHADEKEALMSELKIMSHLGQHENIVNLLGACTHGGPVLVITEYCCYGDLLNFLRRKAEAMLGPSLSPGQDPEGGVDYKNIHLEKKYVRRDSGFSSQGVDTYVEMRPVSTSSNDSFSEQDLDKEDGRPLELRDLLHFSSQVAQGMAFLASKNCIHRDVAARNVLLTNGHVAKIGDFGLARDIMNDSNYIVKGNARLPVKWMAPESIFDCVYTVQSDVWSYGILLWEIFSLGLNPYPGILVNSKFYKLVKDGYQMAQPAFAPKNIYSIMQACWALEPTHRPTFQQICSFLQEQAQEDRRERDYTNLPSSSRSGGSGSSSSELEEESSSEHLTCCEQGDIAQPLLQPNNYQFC

Columns and labels:
[1] = target: human CSF-1R (form not stated) (human) (UniProt P07333); experiment: quartz crystal microbalance (Attana)
[2] = target: CSF-1R20-512-Fc (R&D Systems cat. 329-MR) (human) (UniProt P07333); experiment: ELISA, 300 ng coated CSF-1R20-512-Fc, 500 ng/ml antibody

binding [1]: binds
binding [2]: binds
B1: H19K12 (antibody, V domains shown)
VH: EVQLVESGGGLVQPGGSLKLSCAASGFTFSDAWMDWVRQSPEMGLEWVAEIRSKANNHATFYAESVKGRFTISRDDSKSSVYLQMNSLRAEDTGIYYCTRVKVGFDNWGQGTTLTVSS
VL: DIQMTQSPSSLSASVGDRVTITCRASENIYSNLAWYQQKDGKSPQLLVHAATNLADGVPSRFSGSGSGTQYSLTISSLQPEDFGSYYCQHFWGTPRTFGGGTKLEIKR
